According to paper PMC6028644:
Results are given in words; binding and its absence hold for the method and conditions named. In cells and extracts the contact can be indirect. Some results given as binding are weak or reduced against the parent protein; the word gives no strength.

Sequences of proteins named here, by UniProt entry; tags and fusion partners are left off. Residues count along the entry.
UniProt P18418, residues 18-416: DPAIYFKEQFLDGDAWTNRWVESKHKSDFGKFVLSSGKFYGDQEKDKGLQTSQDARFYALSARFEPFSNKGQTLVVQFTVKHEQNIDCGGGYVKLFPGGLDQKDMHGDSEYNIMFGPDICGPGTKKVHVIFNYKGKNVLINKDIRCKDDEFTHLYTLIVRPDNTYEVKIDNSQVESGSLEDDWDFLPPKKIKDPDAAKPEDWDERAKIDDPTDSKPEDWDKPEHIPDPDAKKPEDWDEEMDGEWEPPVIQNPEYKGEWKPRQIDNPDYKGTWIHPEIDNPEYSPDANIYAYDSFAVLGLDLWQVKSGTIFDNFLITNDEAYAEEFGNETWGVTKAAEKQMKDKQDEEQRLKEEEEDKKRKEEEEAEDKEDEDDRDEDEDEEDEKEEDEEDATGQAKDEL
UniProt P24368, residues 34-216: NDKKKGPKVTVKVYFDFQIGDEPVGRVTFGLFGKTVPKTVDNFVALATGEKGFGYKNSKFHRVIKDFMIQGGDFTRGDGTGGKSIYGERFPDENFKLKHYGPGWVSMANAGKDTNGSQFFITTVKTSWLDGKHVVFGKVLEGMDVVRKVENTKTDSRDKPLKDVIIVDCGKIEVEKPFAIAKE

Legend:
[1] = target: T1, calcium-modulating cyclophilin ligand (CAML), endogenous in BRL-3A rat hepatocytes (rat (endogenous in BRL-3A)) (UniProt Q6DGG9); experiment: co-IP; endogenous CAML with endogenous cyclophilin B or calreticulin in BRL-3A lysate, precipitated in either direction; cells transfected with pcDNA-control, pcDNA-ΔTM1-Flag or Tmub1-siRNA (for calreticulin also pcDNA-TMUB1-Flag), harvested on day 2; lysis buffer 20 mM Tris-HCl pH 7.5, 500 mM NaCl, 2% Triton X-100; overnight at 4 °C
T1 sequence: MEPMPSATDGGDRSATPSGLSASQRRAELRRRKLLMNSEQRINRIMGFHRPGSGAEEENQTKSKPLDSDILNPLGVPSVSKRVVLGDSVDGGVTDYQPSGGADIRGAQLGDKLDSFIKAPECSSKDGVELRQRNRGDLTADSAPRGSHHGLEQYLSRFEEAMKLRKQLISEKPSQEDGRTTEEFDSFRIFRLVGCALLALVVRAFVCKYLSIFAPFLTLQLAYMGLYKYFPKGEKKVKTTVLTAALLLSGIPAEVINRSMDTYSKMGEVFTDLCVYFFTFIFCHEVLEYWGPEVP

[2] = target: T1, calcium-modulating cyclophilin ligand (CAML), endogenous in BRL-3A rat hepatocytes (rat (endogenous in BRL-3A)); experiment: condition: only with overexpression of TMUB1 (pcDNA-TMUB1-Flag); co-IP; endogenous CAML with endogenous cyclophilin B in lysate of BRL-3A cells overexpressing TMUB1 (pcDNA-TMUB1-Flag), precipitated in either direction; lysis buffer 20 mM Tris-HCl pH 7.5, 500 mM NaCl, 2% Triton X-100; overnight at 4 °C

| Substance | binding [1] | binding [2] |
| --- | --- | --- |
| calreticulin, endogenous in BRL-3A rat hepatocytes (from UniProt P18418 18-416) | binds |  |
| cyclophilin B, endogenous in BRL-3A rat hepatocytes (from UniProt P24368 34-216) | binds | no binding |
